Here are results for 3 molecules from publication PMC12695944, “Geminin inhibits DNA replication licensing by sterically blocking CDT1-MCM2 interactions” (Nature Communications, 2025).

The chains behind the UniProt entries cited, without tags or fusion partners. Where a name states a change or a piece, a line headed by the entry shows the natural chain unless it says otherwise.
UniProt Q13415: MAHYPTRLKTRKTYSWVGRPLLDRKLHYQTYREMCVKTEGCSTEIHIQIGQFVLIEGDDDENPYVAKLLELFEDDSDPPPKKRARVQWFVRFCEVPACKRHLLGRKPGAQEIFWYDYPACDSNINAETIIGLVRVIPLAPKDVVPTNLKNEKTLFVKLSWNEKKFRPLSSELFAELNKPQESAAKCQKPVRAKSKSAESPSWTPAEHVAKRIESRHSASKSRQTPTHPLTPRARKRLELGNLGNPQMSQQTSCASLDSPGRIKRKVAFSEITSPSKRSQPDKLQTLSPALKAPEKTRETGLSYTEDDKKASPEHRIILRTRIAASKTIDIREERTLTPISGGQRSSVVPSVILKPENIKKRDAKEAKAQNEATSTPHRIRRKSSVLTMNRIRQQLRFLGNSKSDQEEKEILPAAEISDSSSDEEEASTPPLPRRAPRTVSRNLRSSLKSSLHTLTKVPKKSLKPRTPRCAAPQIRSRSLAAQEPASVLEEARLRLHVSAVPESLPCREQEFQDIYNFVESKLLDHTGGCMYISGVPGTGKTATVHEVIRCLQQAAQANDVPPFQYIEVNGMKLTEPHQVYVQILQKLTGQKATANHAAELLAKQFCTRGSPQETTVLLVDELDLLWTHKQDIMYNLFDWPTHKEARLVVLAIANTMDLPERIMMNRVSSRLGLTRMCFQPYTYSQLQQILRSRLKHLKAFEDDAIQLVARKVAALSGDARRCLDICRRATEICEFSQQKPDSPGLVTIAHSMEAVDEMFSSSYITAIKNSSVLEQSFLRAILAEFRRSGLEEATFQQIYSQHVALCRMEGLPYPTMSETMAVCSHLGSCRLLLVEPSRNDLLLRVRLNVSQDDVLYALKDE

No constants are given. Whether binding was seen depends on the method and setting. Some entries that bind do so weakly or less than the wild type. For part of these data: Where a sequence is shown, tags or fusion partners need not be part of it.

Assay [1] concerns the target T1, full-length geminin (Gem^FL) (human) (UniProt O75496).
T1 sequence: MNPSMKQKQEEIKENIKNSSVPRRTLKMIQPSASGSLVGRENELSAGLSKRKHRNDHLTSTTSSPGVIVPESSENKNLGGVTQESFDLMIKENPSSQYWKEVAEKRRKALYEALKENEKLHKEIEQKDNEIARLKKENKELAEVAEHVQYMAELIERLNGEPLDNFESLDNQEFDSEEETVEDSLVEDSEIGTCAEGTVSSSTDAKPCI
Briefly: co-purification; His-geminin and untagged CDT1 co-expressed in E. coli; HisTrap, tag cleavage, POROS HQ, size exclusion as for geminin.

Assay [2] concerns the target T2, CDT1^ΔN (N-terminally truncated CDT1^158-546) (human) (UniProt Q9H211).
T2 sequence: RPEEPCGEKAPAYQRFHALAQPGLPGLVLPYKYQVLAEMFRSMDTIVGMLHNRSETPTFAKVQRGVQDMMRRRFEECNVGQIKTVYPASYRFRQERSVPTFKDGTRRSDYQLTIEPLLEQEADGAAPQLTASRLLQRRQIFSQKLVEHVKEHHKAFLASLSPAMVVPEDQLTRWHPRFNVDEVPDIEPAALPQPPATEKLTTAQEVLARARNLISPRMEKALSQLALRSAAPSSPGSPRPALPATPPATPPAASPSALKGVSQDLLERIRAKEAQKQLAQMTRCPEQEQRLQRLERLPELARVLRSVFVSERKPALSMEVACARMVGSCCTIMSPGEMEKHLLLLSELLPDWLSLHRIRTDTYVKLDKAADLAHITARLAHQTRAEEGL
Briefly: SPR; multi-cycle; CDT1^ΔN captured by its N-terminal His tag on an NTA chip; geminin peptides 0.49–250 nM (two-fold steps); 25 °C; 10 mM HEPES, 500 mM NaCl, 50 µM EDTA, 1 mM TCEP-HCl, 0.05% Tween-20, pH 8.0; 1:1 kinetic model of analyte dimer:CDT1, steady-state 1:1 model for Gem^96–160 and Gem^102–160; both purified.

A further assay concerns the target Gem^96–130 (human) (UniProt O75496). Briefly: SEC-MALS; Superdex 200 Increase 10/300 GL; peptides 500–1000 µM, 100 µL injected; 10 mM HEPES, 150 mM NaCl, 1 mM TCEP-HCl, pH 7.5; 0.25 mL/min; both purified.
Assay [3] has as its target ORC1-5-CDC6-MCM2-7 complex assembled on origin DNA (the pre-RC / OCCM without CDT1) (human) (UniProt Q13415). The assay is described as follows: pre-RC assay (reconstituted proteins on DNA-coupled beads); as the pre-RC assay but with 1 mM ATPγS (arrest at the OCCM); Cy3-CDT1^ΔN; ± geminin from the start; low-salt wash; silver stain and Cy3 fluorescence; both purified.
Assay [4] has as its target T3, CDT1 C-terminal helical domain (CDT1^CHD, residues 391–546) (human) (UniProt Q9H211).
T3 sequence: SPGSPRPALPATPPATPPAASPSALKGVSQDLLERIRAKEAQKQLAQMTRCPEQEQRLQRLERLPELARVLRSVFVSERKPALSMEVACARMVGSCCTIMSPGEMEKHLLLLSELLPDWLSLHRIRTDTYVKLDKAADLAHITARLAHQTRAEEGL
Briefly: condition: 150 nM CDT1^CHD with 300 nM geminin monomer, diluted 1:10 on the instrument; mass photometry; room temperature; proteins incubated at CDT1:geminin monomer ratios 0:1, 1:0, 1:2, 1:3, 2:4, 1:4 (1 part = 150 nM) in pre-RC buffer minus Triton X-100, diluted 1:10 in PBS on the instrument; MHD, CHD at 1:2; both purified.

The target in assay [5] is ORC1-5-CDC6-MCM2-7 complex assembled on origin DNA (the pre-RC / OCCM without CDT1) (human) (UniProt Q13415). The assay is described as follows: pre-RC assay (reconstituted proteins on DNA-coupled beads); 47 nM ORC1-5, 94 nM ORC6, 94 nM CDC6, 47 nM CDT1, 70 nM MCM2-7, ± 94 nM geminin; 25 mM HEPES-KOH pH 7.5, 250 mM KGlu, 4 mM MgOAc, 0.1% Triton X-100, 1 mM ATP, 30 °C; lamin B2 DNA on streptavidin beads; low-salt wash; DNaseI elution; silver stain or anti-CDT1 blot; both purified.

B1: full-length CDT1 (CDT1^FL), untagged, co-expressed with geminin (CG complex) (protein, UniProt Q9H211 1-546)
chain: MEQRRVTDFFARRRPGPPRIAPPKLACRTPSPARPALRAPASATSGSRKRARPPAAPGRDQARPPARRRLRLSVDEVSSPSTPEAPDIPACPSPGQKIKKSTPAAGQPPHLTSAQDQDTISELASCLQRARELGARVRALKASAQDAGESCTPEAEGRPEEPCGEKAPAYQRFHALAQPGLPGLVLPYKYQVLAEMFRSMDTIVGMLHNRSETPTFAKVQRGVQDMMRRRFEECNVGQIKTVYPASYRFRQERSVPTFKDGTRRSDYQLTIEPLLEQEADGAAPQLTASRLLQRRQIFSQKLVEHVKEHHKAFLASLSPAMVVPEDQLTRWHPRFNVDEVPDIEPAALPQPPATEKLTTAQEVLARARNLISPRMEKALSQLALRSAAPSSPGSPRPALPATPPATPPAASPSALKGVSQDLLERIRAKEAQKQLAQMTRCPEQEQRLQRLERLPELARVLRSVFVSERKPALSMEVACARMVGSCCTIMSPGEMEKHLLLLSELLPDWLSLHRIRTDTYVKLDKAADLAHITARLAHQTRAEEGL
Regarding B1, the binding entry in assay [1] is “binds”.

B2: Gem^96–130 (peptide, UniProt O75496 96-130)
peptide: SQYWKEVAEKRRKALYEALKENEKLHKEIEQKDNE
modifications: N-terminal acetyl
For B2, the binding entry in assay [2] is on record as “no binding (tested: 0.49–250 nM peptide)”; in the assay with Gem^96–130 (human), “no binding (tested: 500–1000 µM injected)”.

B3: full-length geminin (Gem^FL) (natural protein, human, UniProt O75496 1-209, looked up)
chain: T1 sequence
notes: geminin, human, UniProt O75496, full length; Dimer in solution; In the co-purification of the CG complex the His tag is still on geminin at the HisTrap step and is cleaved afterwards; Plasmid is in Supplementary Data 1; also called WT geminin; source: E. coli BL21 (DE3), purified (HisTrap Excel, POROS HQ, Superdex 200); also co-expressed with untagged CDT1 in E. coli BL21 (DE3) and purified in …
Turning to B3, the binding entry in assay [3] was “no binding”; in assay [4] it was “no binding”; in assay [5], “no binding (tested: 94 nM geminin)”.
